The subject of this experiment is L1210 leukemia ip in BDF1 mice, survival T/C. The experiment can be described thus: NCI In Vivo Anticancer Drug Screen. Data for tumor model L1210 Leukemia (intraperitoneal) in B6D2F1 (BDF1) mice. To be noted: T/C endpoint: mean survival time, higher T/C = longer survival.
Setting [1] is: dose: 300.0 mg/kg/injection, schedule: Q01DX001 (ip), vehicle: other.
The mark [2] stands for this setting: dose: 100.0 mg/kg/injection, schedule: Q04DX002 (ip), vehicle: saline.
Setting [3] is: dose: 200.0 mg/kg/injection, schedule: Q04DX002 (ip), vehicle: saline.
Setting [4] is: dose: 400.0 mg/kg/injection, schedule: Q04DX002 (ip), vehicle: saline.

SMILES strings stand for the structures. The list does not hold the whole screen: it gathers some chemical classes. Other doses and runs of a compound may be missing. T/C: endpoint of the treated group in % of that of the vehicle group. Some entries give survivors of the animals treated and no T/C: the source files T/C as zero there, which appears to mark a toxic dose or a test without result, not a measured value. Some survivor counts are full or nearly so, which does not show that the dose was tolerated: the source hardly ever lists a survival T/C far under the control, and the zero likely stands for such cases as well. Counts of survivors are from the toxicity check (mostly the fifth day) where no day follows; animals may have died later. Schedule codes are those of the source, read here as Q, the interval in days (D) or hours (H), X, the number of doses. Some entries hold several experiments; their values stand side by side, smallest first. For survival time, this PubChem deposit counts one and a half times the control or more as active, and values a quarter to a half above the control carry no call in these data; other NCI protocols may use other cut-offs. Some T/C values are marked as having no survivor count here; that says nothing about deaths at the dose. Some T/C values carry the count of animals alive at the toxicity check (mostly the fifth day); where neither a count nor a note follows, no animal had died by that day.

For `NC(=O)c1cn[nH]c1/N=N/N(CCCl)CCCl`, the survivor count (dose: 67.0 mg/kg/injection, schedule: Q01DX009 (ip), vehicle: other) is given as 6 of 6; the survivor count (dose: 75.0 mg/kg/injection, schedule: Q01DX001 (ip), vehicle: other) is reported as 6 of 6; the survivor count (dose: 100.0 mg/kg/injection, schedule: Q01DX009 (ip), vehicle: other) is 6 of 6; the survivor count (dose: 150.0 mg/kg/injection, schedule: Q01DX001 (ip), vehicle: other) is given as 6 of 6; the survivor count under setting [1] was 6 of 6. In addition, the T/C is 103 % of control (dose: 67.75 mg/kg/injection, schedule: Q01DX009 (ip), vehicle: saline with Tween-80); 113 % of control (dose: 88.0 mg/kg/injection, schedule: Q01DX009 (ip), vehicle: other); 113 % of control (dose: 132.0 mg/kg/injection, schedule: Q01DX001 (ip), vehicle: other); 130 % of control (dose: 132.0 mg/kg/injection, schedule: Q01DX009 (ip), vehicle: other); 122 % of control (dose: 135.5 mg/kg/injection, schedule: Q01DX009 (ip), vehicle: saline with Tween-80); 134 % of control (dose: 150.0 mg/kg/injection, schedule: Q01DX009 (ip), vehicle: other). Also, the T/C was 110 % of control (dose: 200.0 mg/kg/injection, schedule: Q01DX001 (ip), vehicle: other); 140 % of control [5 of 6 alive] (dose: 200.0 mg/kg/injection, schedule: Q01DX009 (ip), vehicle: other); 148 % of control (dose: 271.0 mg/kg/injection, schedule: Q01DX009 (ip), vehicle: saline with Tween-80); 121 % of control under setting [1]; 178 and 196 % of control (dose: 300.0 mg/kg/injection, schedule: Q01DX009 (ip), vehicle: other); 130 % of control (dose: 450.0 mg/kg/injection, schedule: Q01DX001 (ip), vehicle: other). The T/C (dose: 450.0 mg/kg/injection, schedule: Q01DX009 (ip), vehicle: other) was 190 % of control [5 of 6 alive].

Take `CC1CC[P+](c2ccccc2)(c2ccccc2)Cc2ccccc21.F[P-](F)(F)(F)(F)F` (centres undefined): for the setting “dose: 100.0 mg/kg/injection, schedule: Q04DX002 (ip), vehicle: saline with Tween-80”, the T/C was 92 % of control. For the same molecule, the survivor count (dose: 200.0 mg/kg/injection, schedule: Q04DX002 (ip), vehicle: saline with Tween-80) is on record as 3 of 3 and the survivor count (dose: 400.0 mg/kg/injection, schedule: Q04DX002 (ip), vehicle: saline with Tween-80) is 0 of 3.

As for `CCOP(=O)(CC)OC(=O)N(CC)CC` (centres undefined), the T/C is 108 % of control [survivor count not shown] under setting [2], 97 % of control [survivor count not shown] under setting [3] and 104 % of control [survivor count not shown] under setting [4].

As to `CC[P+]1(c2ccccc2)CCC(C)(C)c2ccccc21.F[P-](F)(F)(F)(F)F` (centres undefined), the T/C reads like this: (dose: 6.25 mg/kg/injection, schedule: Q04DX003 (ip), vehicle: Klucel (hydroxypropylcellulose) (HPC)) 96 % of control; (dose: 12.5 mg/kg/injection, schedule: Q04DX003 (ip), vehicle: Klucel (hydroxypropylcellulose) (HPC)) 96 % of control. The survivor count (dose: 25.0 mg/kg/injection, schedule: Q04DX003 (ip), vehicle: Klucel (hydroxypropylcellulose) (HPC)) is 0 of 6; the survivor count (dose: 50.0 mg/kg/injection, schedule: Q04DX003 (ip), vehicle: Klucel (hydroxypropylcellulose) (HPC)) is 0 of 6 and 3 of 6; the survivor count (dose: 100.0 mg/kg/injection, schedule: Q04DX003 (ip), vehicle: Klucel (hydroxypropylcellulose) (HPC)) is reported as 0 of 6; the survivor count (dose: 200.0 mg/kg/injection, schedule: Q04DX003 (ip), vehicle: Klucel (hydroxypropylcellulose) (HPC)) was 0 of 6; the survivor count (dose: 400.0 mg/kg/injection, schedule: Q04DX003 (ip), vehicle: Klucel (hydroxypropylcellulose) (HPC)) is 0 of 6.

Turning to `CC(C)OP(OC(C)C)c1ccccc1`, the T/C was 106 % of control under setting [2] and 102 % of control under setting [3]. Further, the survivor count under setting [4] is listed as 2 of 3.

Source of the values: PubChem BioAssay AID248 (DTP/NCI, 2004).
